Assay results as given in the supplement of paper PMC10849652.
Some of the results follow.

The chains behind the UniProt entries cited, without tags or fusion partners. Where a name states a change or a piece, a line headed by the entry shows the natural chain unless it says otherwise.
UniProt Q86WP2: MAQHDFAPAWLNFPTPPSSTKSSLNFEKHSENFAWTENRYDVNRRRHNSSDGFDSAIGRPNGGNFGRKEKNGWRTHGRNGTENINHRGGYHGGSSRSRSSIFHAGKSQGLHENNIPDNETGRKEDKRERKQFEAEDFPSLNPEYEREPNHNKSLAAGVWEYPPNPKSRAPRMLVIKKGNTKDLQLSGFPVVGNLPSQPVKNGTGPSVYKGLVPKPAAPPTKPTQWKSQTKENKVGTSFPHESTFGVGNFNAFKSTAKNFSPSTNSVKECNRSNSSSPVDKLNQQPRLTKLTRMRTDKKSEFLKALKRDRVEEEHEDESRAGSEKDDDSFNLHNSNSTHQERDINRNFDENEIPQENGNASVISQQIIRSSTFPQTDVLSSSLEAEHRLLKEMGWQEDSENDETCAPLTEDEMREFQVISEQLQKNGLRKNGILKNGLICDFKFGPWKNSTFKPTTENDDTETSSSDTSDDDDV
UniProt O43292: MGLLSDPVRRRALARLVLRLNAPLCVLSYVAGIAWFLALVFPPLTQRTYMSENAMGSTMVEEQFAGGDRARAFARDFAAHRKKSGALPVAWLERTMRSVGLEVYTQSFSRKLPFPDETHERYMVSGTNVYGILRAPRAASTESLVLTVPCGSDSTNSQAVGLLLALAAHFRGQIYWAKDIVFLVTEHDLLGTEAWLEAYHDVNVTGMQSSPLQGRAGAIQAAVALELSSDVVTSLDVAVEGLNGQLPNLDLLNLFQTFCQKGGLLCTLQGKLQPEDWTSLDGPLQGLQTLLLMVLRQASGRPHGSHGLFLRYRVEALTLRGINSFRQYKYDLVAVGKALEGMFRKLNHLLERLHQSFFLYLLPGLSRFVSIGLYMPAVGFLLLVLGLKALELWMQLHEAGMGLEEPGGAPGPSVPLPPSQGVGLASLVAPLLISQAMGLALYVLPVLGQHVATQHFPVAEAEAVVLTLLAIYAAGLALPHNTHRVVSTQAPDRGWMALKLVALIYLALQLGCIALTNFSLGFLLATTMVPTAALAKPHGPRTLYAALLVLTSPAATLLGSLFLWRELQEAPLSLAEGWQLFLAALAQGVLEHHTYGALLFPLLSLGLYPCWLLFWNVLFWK
UniProt Q9BQ67, whole entry, looked up: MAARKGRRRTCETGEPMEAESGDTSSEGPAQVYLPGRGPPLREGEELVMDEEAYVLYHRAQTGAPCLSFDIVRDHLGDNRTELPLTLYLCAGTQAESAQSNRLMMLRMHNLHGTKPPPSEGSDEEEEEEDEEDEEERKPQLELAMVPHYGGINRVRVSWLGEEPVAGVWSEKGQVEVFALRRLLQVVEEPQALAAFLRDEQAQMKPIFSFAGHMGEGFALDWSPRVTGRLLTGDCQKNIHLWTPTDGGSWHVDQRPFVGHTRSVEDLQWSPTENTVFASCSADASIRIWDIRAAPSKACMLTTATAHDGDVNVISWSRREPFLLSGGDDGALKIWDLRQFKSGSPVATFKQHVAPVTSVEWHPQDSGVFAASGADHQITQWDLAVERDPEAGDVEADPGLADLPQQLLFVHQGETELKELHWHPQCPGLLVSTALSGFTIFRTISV
UniProt O00461: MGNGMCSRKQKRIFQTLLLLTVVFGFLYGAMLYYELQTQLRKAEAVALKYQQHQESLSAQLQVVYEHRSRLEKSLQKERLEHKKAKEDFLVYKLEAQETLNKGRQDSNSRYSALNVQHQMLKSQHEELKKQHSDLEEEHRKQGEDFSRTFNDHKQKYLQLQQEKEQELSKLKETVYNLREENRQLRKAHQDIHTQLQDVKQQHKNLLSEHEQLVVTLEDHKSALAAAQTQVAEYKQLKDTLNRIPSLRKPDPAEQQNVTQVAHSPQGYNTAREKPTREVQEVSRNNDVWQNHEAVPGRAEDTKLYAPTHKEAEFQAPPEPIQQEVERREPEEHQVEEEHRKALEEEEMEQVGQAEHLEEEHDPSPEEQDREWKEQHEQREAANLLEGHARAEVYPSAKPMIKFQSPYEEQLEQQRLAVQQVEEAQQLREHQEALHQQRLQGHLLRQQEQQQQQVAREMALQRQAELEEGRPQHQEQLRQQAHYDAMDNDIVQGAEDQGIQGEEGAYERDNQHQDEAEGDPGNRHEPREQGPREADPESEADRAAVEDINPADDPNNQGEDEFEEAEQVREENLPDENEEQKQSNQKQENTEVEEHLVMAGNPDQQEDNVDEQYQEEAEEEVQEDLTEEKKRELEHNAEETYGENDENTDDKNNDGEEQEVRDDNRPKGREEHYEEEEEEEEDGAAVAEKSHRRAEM
UniProt Q8TDQ7: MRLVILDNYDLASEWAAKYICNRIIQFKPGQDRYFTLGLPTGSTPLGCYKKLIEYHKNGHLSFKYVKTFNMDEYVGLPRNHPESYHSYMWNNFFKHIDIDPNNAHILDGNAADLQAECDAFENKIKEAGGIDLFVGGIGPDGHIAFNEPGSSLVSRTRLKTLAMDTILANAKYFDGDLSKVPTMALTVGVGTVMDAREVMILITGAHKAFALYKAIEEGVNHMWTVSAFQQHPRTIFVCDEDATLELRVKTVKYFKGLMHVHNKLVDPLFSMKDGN
UniProt Q9BXV9: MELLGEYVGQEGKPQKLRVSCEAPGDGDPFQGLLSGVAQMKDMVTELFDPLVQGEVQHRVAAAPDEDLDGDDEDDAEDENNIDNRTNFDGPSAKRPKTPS
UniProt P50148, whole entry, looked up: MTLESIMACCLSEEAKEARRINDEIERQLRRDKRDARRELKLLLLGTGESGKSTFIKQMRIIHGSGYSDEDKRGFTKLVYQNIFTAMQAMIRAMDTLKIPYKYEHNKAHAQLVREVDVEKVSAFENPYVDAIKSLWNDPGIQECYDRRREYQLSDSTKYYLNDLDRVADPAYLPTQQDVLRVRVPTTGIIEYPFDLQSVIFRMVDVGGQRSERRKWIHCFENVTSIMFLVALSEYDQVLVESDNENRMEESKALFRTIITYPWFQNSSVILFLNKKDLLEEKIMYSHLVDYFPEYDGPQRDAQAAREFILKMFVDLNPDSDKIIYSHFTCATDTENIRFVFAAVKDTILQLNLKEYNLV
UniProt P29992, whole entry, looked up: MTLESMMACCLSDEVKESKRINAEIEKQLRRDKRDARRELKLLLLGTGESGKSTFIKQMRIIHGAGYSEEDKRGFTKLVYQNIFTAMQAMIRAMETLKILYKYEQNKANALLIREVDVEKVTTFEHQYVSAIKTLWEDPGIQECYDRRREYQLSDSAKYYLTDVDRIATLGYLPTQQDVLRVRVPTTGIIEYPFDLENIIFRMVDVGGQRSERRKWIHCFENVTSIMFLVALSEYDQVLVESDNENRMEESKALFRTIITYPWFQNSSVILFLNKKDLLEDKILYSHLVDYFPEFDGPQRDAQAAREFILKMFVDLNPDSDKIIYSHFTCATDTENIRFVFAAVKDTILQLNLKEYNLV
UniProt O75791: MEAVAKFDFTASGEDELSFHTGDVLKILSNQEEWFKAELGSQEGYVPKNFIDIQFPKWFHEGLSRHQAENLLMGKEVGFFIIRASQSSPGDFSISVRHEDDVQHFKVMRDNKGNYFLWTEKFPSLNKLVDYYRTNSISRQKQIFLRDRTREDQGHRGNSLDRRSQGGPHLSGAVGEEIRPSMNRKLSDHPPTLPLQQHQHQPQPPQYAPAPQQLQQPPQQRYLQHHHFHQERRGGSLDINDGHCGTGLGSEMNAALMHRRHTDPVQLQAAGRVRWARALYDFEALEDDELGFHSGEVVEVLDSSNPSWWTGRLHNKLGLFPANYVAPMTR
UniProt O60234, whole entry, looked up: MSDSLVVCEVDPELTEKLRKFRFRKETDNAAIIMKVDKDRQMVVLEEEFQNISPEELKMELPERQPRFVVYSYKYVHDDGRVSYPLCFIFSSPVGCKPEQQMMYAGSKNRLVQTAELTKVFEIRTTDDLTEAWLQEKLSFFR
UniProt P60983, whole entry, looked up: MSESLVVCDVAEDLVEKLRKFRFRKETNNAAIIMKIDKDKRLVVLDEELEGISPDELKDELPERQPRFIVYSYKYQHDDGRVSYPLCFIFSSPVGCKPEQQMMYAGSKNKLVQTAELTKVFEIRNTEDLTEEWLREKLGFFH
UniProt P49915: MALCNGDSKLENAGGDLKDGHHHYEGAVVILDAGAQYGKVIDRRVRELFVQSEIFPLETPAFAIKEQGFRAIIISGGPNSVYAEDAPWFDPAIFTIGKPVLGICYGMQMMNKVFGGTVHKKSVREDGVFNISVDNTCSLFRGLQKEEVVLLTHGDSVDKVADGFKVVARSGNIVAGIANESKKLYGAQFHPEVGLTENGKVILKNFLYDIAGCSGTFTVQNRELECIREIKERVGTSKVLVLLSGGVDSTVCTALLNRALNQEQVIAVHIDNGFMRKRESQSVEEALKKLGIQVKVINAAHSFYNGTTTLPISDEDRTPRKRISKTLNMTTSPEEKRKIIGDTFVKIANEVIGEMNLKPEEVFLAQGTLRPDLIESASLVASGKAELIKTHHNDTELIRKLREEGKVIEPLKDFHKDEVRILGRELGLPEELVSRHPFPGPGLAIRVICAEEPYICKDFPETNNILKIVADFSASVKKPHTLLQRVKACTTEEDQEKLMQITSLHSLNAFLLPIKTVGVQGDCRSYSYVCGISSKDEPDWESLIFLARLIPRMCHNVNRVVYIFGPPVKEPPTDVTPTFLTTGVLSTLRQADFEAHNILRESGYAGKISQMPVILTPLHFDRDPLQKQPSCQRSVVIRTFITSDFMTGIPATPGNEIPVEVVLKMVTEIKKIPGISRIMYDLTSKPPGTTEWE
UniProt Q8N335: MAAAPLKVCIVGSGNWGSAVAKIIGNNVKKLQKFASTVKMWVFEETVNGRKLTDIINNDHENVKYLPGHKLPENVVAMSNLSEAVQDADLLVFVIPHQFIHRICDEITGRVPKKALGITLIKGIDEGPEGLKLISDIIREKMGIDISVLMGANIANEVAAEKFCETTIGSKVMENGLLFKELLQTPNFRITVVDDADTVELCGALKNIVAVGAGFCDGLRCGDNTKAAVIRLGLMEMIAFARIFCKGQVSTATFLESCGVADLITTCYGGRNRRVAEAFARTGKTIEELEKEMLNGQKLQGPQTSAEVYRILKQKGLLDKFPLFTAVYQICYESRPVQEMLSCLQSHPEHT
UniProt P43304: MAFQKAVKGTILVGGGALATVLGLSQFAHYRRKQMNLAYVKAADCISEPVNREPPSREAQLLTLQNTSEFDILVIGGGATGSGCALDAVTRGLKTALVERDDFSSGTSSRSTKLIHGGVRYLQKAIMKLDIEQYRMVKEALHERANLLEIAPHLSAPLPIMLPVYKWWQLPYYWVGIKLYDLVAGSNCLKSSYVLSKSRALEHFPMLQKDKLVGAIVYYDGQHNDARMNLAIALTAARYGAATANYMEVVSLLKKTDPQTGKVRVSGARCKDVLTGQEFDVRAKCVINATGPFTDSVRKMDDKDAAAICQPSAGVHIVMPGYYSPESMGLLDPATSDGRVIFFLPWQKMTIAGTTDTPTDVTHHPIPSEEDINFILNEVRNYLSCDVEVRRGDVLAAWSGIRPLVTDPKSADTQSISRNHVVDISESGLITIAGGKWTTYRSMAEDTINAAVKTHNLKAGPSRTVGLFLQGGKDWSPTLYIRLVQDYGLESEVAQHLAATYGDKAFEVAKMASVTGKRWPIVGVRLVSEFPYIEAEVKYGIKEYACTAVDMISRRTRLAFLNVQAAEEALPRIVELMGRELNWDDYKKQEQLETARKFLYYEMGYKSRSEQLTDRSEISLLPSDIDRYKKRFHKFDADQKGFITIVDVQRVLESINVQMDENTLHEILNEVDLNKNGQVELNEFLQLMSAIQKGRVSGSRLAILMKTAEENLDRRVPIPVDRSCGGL
UniProt Q5VW38: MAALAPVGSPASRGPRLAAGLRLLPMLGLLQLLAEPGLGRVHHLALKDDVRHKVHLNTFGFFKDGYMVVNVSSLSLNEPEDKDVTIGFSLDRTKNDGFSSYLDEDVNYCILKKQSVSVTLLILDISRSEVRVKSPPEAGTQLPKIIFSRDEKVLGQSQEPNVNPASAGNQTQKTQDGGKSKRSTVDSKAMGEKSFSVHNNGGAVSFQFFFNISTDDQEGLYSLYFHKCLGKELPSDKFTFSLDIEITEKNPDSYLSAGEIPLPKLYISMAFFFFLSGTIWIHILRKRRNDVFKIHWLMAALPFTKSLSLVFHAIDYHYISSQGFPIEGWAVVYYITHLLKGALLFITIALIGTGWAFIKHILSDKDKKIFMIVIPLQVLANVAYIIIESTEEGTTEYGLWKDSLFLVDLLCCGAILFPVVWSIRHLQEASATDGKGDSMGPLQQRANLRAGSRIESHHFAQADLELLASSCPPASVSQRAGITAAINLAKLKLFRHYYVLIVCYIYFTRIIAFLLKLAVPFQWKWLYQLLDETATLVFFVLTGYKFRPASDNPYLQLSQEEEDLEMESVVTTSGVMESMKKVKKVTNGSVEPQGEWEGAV

What was measured:
Assay in all cases: log2 fold change, soluble protein after heating vs DMSO (PISA); higher = thermal stabilisation; K562 cells, 10 uM, 30 min; active = over 0.2 and 3.5 SD of the protein, either way, in both replicates (recomputed)
[1] = compound: CC1=C(C=C(C=C1)NC(=O)C2=CC(=CC=C2)C(C)(C)C#N)NC3=CC4=C(C=C3)N=CN(C4=O)C
Outline: (§1)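 Soluble protein was quantified by TMTpro 16plex LC-MS/MS after channel sums were equalised. It was obtained as the supernatant after 21,000xg for 90 min from pooled aliquots of K562 cells (2×10^6 cells/mL, 10 μM compound, 30 min) heated for 3 min across 48°C-58°C and extracted in PBS with 0.5% NP-40 at 4°C. Thermal stability values are relative to control samples and come from duplicates. They are given as log2 fold changes.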

[2] = compound: CC1=C(C=C(C=C1)NC(=O)C2=CC(=CC=C2)N(C)C)NC(=O)C3=CC=C(C=C3)O
Outline: as §1

[3] = compound: CC1=CC=C(C=C1)SC2=C3C=C(SC3=CN=C2)C(=O)N
Outline: as §1

[4] = compound: CC1=NC(=CC=C1)C2=C(N=C(N2)C(C)(C)C)C3=CC4=NC=CN=C4C=C3
Outline: as §1

[5] = compound: CCCCN(Cc1ccc(C(=O)NO)cc1)C(=O)Nc1ccccc1 [Nexturastat A]
Outline: as §1

[6] = compound: CCCS(=O)(=O)Nc1ccc(F)c(C(=O)c2c[nH]c3ncc(-c4ccc(Cl)cc4)cc23)c1F [vemurafenib]
Outline: as §1

[7] = compound: CCCS(=O)(=O)Nc1ccc(F)c(C(=O)c2c[nH]c3ncc(Cl)cc23)c1F
Outline: as §1

[8] = compound: CCCc1cc(C)[nH]c(=O)c1CNC(=O)c1cc(-c2ccnc(N3CCN(C)CC3)c2)cc2c1cnn2C(C)C
Outline: as §1

[9] = compound: CCN(CC)Cc1ccc2cc(COC(=O)Nc3ccc(C(=O)NO)cc3)ccc2c1 [givinostat]
Outline: as §1

[10] = compound: CCN(CCCOc1ccc2c(Nc3cc(CC(=O)Nc4cccc(F)c4)[nH]n3)ncnc2c1)CCOP(=O)(O)O [barasertib]
Outline: as §1

[11] = compound: CC[C@@H]1C(=O)N(C)c2cnc(Nc3ccc(C(=O)NC4CCN(C)CC4)cc3OC)nc2N1C1CCCC1
Outline: as §1

[12] = compound: CC[C@@H]1C(=O)N(C)c2cnc(Nc3ccc(C(=O)N[C@H]4CC[C@H](N5CCN(CC6CC6)CC5)CC4)cc3OC)nc2N1C(C)C [volasertib]
Outline: as §1

[13] = compound: CC[C@H](C)N1C=C(C2=C(C=C(C=C21)C3=CN=C(C=C3)N4CCNCC4)C(=O)NCC5=C(C=C(NC5=O)C)C)C
Outline: as §1

[14] = compound: CC[C@H](C)[C@@H](C(=O)N[C@@H]([C@@H](C)O)C(=O)N[C@@H](CC(C)C)C(=O)[C@]1(CO1)C)NC(=O)[C@H]([C@@H](C)CC)N(C)C(=O)C [epoxomicin]
Outline: as §1

[15] = compound: CCn1c(C(=O)N(C2CC2)C2CC2)cc2c3c(ncn3C)c(Nc3cc(C)n(C)n3)nc21
Outline: as §1

[16] = compound: CCn1cc(-c2ccnc3[nH]c(-c4cccc(CN(C)C)c4)cc23)c(-c2ccc(NC(=O)N(C)C)cc2)n1
Outline: as §1

[17] = compound: CN(C)CC(=O)Nc1ccc2[nH]c(=O)c3ccccc3c2c1
Outline: as §1

[18] = compound: CN(CCOC1=CC=C(C=C1)C[C@H]2C(=O)NC(=O)S2)C3=CC=CC=N3 (racemic) [rosiglitazone]
Outline: as §1

[19] = compound: CN1C2=C(C3=C1C(=O)N(N=C3)CC4=CC(=CC=C4)N)SC(=C2)S(=O)C
Outline: as §1

[20] = compound: CN1CCC(CNc2ccc3ncc(-c4cccc(OC(F)(F)F)c4)n3n2)CC1
Outline: as §1

Measured: log2 fold change

GPATCH8 (UniProt Q9UKJ3)
inactive: [1] -0.071 | [2] -0.018 | [3] -0.037 | [4] -0.082 | [5] -0.016 | [6] -0.019 | [7] 0.008 | [8] -0.005 | [9] 0.044 | [10] 0.006 | [11] -0.005 | [12] -0.063 | [13] -0.047 | [14] 0.055 | [15] -0.041 | [16] 0.073 | [17] -0.03 | [18] 0.023 | [19] 0.014 | [20] 0.058

GPBP1 isoform 2 (UniProt Q86WP2)
inactive: [1] 0.017 | [2] -0.04 | [3] -0.081 | [4] 0.029 | [5] 0.095 | [6] -0.182 | [7] -0.046 | [8] -0.053 | [9] -0.059 | [10] -0.03 | [11] 0.001 | [12] 0.078 | [13] 0.029 | [14] 0.048 | [15] 0.028 | [16] 0.001 | [17] -0.045 | [18] 0.028 | [19] -0.007 | [20] -0.028

GPAA1 (UniProt O43292)
inactive: [1] -0.01 | [2] 0.003 | [3] 0.028 | [4] -0.009 | [5] -0.024 | [6] -0.038 | [7] -0.057 | [8] 0.042 | [9] 0 | [10] 0.023 | [11] 0.012 | [12] -0.1 | [13] 0.024 | [14] 0.016 | [15] 0.091 | [16] -0.075 | [17] 0 | [18] -0.025 | [19] -0.009 | [20] 0.079

GRWD1 (UniProt Q9BQ67)
inactive: [1] -0.078 | [2] -0.001 | [3] -0.067 | [4] -0.114 | [5] 0.2 | [6] -0.133 | [7] -0.091 | [8] 0.154 | [9] 0.009 | [10] -0.051 | [11] 0.181 | [12] 0.247 | [13] -0.035 | [14] -0.202 | [15] 0.087 | [16] -0.036 | [17] -0.099 | [18] -0.113 | [19] 0.357 | [20] 0.216

GOLIM4 (UniProt O00461)
inactive: [1] 0.038 | [2] 0.005 | [3] 0.005 | [4] 0.027 | [5] -0.046 | [6] -0.029 | [7] 0.017 | [8] -0.025 | [9] -0.004 | [10] -0.021 | [11] -0.169 | [12] -0.215 | [13] -0.013 | [14] 0.005 | [15] 0.054 | [16] 0.008 | [17] -0.019 | [18] 0.01 | [19] -0.048 | [20] -0.08

GNPDA2 (UniProt Q8TDQ7)
inactive: [1] -0.034 | [2] -0.074 | [3] 0.002 | [4] 0.051 | [5] -0.095 | [6] 0.049 | [7] 0.015 | [8] 0.003 | [9] -0.027 | [10] 0.013 | [11] 0.037 | [12] 0.171 | [13] -0.004 | [14] -0.103 | [15] 0.033 | [16] -0.024 | [17] -0.042 | [18] 0 | [19] -0.092 | [20] -0.009

GON7 (UniProt Q9BXV9)
inactive: [1] 0.052 | [2] -0.077 | [3] 0 | [4] 0.088 | [5] 0.053 | [6] 0.119 | [7] -0.097 | [8] 0.038 | [9] 0.172 | [10] 0.034 | [11] 0.032 | [12] 0.036 | [13] -0.056 | [14] 0.069 | [15] -0.09 | [16] 0.057 | [17] 0.024 | [18] 0.019 | [19] 0.013 | [20] 0.104

GNAQ (UniProt P50148)
inactive: [1] 0.004 | [2] -0.013 | [3] -0.011 | [4] -0.076 | [5] -0.04 | [6] -0.027 | [7] -0.1 | [8] -0.075 | [9] -0.016 | [10] -0.047 | [11] 0.016 | [12] 0.086 | [13] -0.017 | [14] -0.011 | [15] 0.031 | [16] -0.047 | [17] 0.051 | [18] 0.028 | [19] 0.053 | [20] -0.036

GNA11 (UniProt P29992)
inactive: [1] 0.093 | [2] -0.045 | [3] 0.002 | [4] -0.011 | [5] -0.122 | [6] 0.05 | [7] 0.01 | [8] 0.024 | [9] 0.007 | [10] 0.002 | [11] 0.044 | [12] -0.011 | [13] 0.013 | [14] 0.009 | [15] -0.011 | [16] -0.047 | [17] 0.074 | [18] 0.012 | [19] -0.043 | [20] 0.15

GRAP2 (UniProt O75791)
inactive: [1] -0.183 | [2] -0.082 | [3] 0.014 | [4] -0.07 | [5] 0.067 | [6] 0.069 | [7] 0.049 | [8] 0.087 | [9] 0.156 | [10] 0.046 | [11] -0.127 | [12] -0.267 | [13] -0.022 | [14] 0.042 | [15] 0.023 | [16] -0.061 | [17] 0.138 | [18] -0.059 | [19] -0.016 | [20] -0.121

GMFG (UniProt O60234)
inactive: [1] -0.05 | [2] 0.005 | [3] 0.062 | [4] 0.071 | [5] -0.084 | [6] 0.026 | [7] 0.097 | [8] 0.018 | [9] 0.003 | [10] 0.016 | [11] -0.111 | [12] -0.215 | [13] 0.028 | [14] 0.033 | [15] 0.009 | [16] -0.025 | [17] 0.054 | [18] 0.014 | [19] 0.004 | [20] -0.072

GMFB (UniProt P60983)
inactive: [1] 0.005 | [2] -0.022 | [3] -0.018 | [4] 0.06 | [5] -0.075 | [6] 0.002 | [7] -0.002 | [8] -0.026 | [9] -0.017 | [10] -0.012 | [11] -0.035 | [12] 0.076 | [13] -0.005 | [14] 0.007 | [15] 0.034 | [16] 0.035 | [17] -0.021 | [18] -0.022 | [19] -0.051 | [20] 0.006

GMPS (UniProt P49915)
inactive: [1] 0.008 | [2] -0.024 | [3] 0.033 | [4] 0.046 | [5] -0.051 | [6] 0.013 | [7] 0.057 | [8] -0.01 | [9] -0.019 | [10] 0.009 | [11] 0.033 | [12] 0.071 | [13] 0.037 | [14] 0.04 | [15] 0.037 | [16] -0.109 | [17] 0.028 | [18] 0.066 | [19] -0.082 | [20] -0.169

GPD1L (UniProt Q8N335)
inactive: [1] -0.021 | [2] -0.015 | [3] 0.016 | [4] 0 | [5] -0.121 | [6] 0.034 | [7] -0.023 | [8] -0.03 | [9] -0.024 | [10] 0.051 | [11] -0.013 | [12] -0.059 | [13] 0.024 | [14] -0.013 | [15] -0.006 | [16] -0.07 | [17] 0.006 | [18] -0.025 | [19] -0.081 | [20] -0.026

GPD2 (UniProt P43304)
inactive: [1] -0.022 | [2] -0.007 | [3] 0.028 | [4] -0.017 | [5] -0.049 | [6] -0.025 | [7] -0.018 | [8] -0.023 | [9] -0.024 | [10] -0.016 | [11] 0.048 | [12] 0.03 | [13] -0.032 | [14] -0.007 | [15] 0.006 | [16] 0.005 | [17] -0.018 | [18] -0.014 | [19] -0.039 | [20] 0.023

GPR107 (UniProt Q5VW38)
inactive: [1] -0.047 | [2] -0.015 | [3] -0.033 | [4] -0.005 | [5] 0.048 | [6] -0.012 | [7] -0.014 | [8] -0.014 | [9] 0.187 | [10] 0.001 | [11] 0.095 | [12] 0.043 | [13] -0.012 | [14] -0.005 | [15] -0.047 | [16] 0.016 | [17] -0.038 | [18] 0.052 | [19] -0.025 | [20] 0.017

Taken from the listing (2 entries):
GMPS (UniProt P49915)
inactive: [1] 0.008 | [2] -0.024 | [3] 0.033 | [4] 0.046 | [5] -0.051 | [6] 0.013 | [7] 0.057 | [8] -0.01 | [9] -0.019 | [10] 0.009 | [11] 0.033 | [12] 0.071 | [13] 0.037 | [14] 0.04 | [15] 0.037 | [16] -0.109 | [17] 0.028 | [18] 0.066 | [19] -0.082 | [20] -0.169

GPD1L (UniProt Q8N335)
inactive: [1] -0.021 | [2] -0.015 | [3] 0.016 | [4] 0 | [5] -0.121 | [6] 0.034 | [7] -0.023 | [8] -0.03 | [9] -0.024 | [10] 0.051 | [11] -0.013 | [12] -0.059 | [13] 0.024 | [14] -0.013 | [15] -0.006 | [16] -0.07 | [17] 0.006 | [18] -0.025 | [19] -0.081 | [20] -0.026
